Test results reported in US9850282B2, “Stable pentadecapeptide salts, a process for preparation thereof, a use thereof in the manufacture of pharmaceutical preparations and a use thereof in therapy” (priority 2013, dated 2017).
Where two headings read alike, the source gives them in different places. At least one peptide structure holds a part that was inferred or is arguable (an end, a ring closure or a residue).

Assays:
Sindbis = experiment: Antiviral activity in newborn mice, Sindbis; conditions: mouse, in vivo
Dengue 2 = experiment: Antiviral activity in newborn mice, Dengue 2; conditions: mouse, in vivo
HSV-1 and HSV-2 = experiment: Newborn mice, intracerebral inoculation with HSV-1 and HSV-2; type: in vivo
Insulin over-dose = type: in vivo; conditions: insulin 250 IU/kg i.p.; bepecin 10 μg/kg i.p. or i.g.
KCl-overdose = type: in vivo; conditions: intraperitoneal, intragastric, in vitro
[1] = Blood pressure regulation; design: species or system rats; conditions: rat, in vivo
Dengue 3 = experiment: Antiviral activity in newborn mice, Dengue 3; conditions: mouse, in vivo
Bhania = experiment: Antiviral activity in newborn mice, Bhania; conditions: mouse, in vivo
[2] = system: influenza A viruses, H1N1 and H3N2 types; experiment: Influenza A viruses on MDCK model; type: cell-based; conditions: even at a very low concentration of 32 μg/ml
EAT tumor cells = experiment: Ehrlich's ascites tumor (EAT) in mice; type: in vivo; conditions: prior incubation with bepecin (2 μg/ml); end of observation; infected mice survived for a maximum of 25 days
Dengue 1 = experiment: Antiviral activity in newborn mice, Dengue 1; conditions: mouse, in vivo
Dengue 4 = experiment: Antiviral activity in newborn mice, Dengue 4; conditions: mouse, in vivo
Herpes HSV-1 = experiment: Antiviral activity in newborn mice, Herpes HSV-1; conditions: mouse, in vivo
[3] = system: TBE=Tick-Borne Encephalitis virus; type: in vivo, mice; conditions: Bepecin 20 μg/kg, concomitant with viral infection (0)
[4] = system: tick-borne encephalitis virus (TBE); type: in vivo, mice
Calovo = experiment: Antiviral activity in newborn mice, Calovo; conditions: mouse, in vivo
hepatitis A virus = experiment: Antiviral activity in newborn mice, hepatitis A; conditions: mouse, in vivo
[5] = system: Arboviruses, hepatitis A virus, LCM virus and herpes virus types 1 and 2; experiment: Antiviral activity in newborn mice, summary for all viruses; type: in vivo
dopamine system = experiment: MPTP neurotoxin model; conditions: in vivo
West Nile = experiment: Antiviral activity in newborn mice, West Nile; conditions: mouse, in vivo
[6] = lethally infected newborn mice, agents applied 48 or 72 hours after viral infection, bepecin 10 and 100 μg/kg, acyclovir 10 and 100 mg/kg

H-GEPPPGKPADDAGLV-OH [Bepecin]
Time (days) to death after a viral infection of mouses (Sindbis): 20 days
Time (days) to death after a viral infection of mouses (Sindbis; ip): 20 days
Time (days) to death after a viral infection of mouses (Dengue 2): 20 days
Time (days) to death after a viral infection of mouses (Dengue 2; ip): 20 days
Number of sick animals in lethally infected mice (HSV-1 and HSV-2; 10 μg/kg and 100 μg/kg): remarkably reduces the number of sick animals
Survival time (medium) (HSV-1 and HSV-2; [6]): 131 h
Survival time (min.) (HSV-1 and HSV-2; [6]): 128 h
Insulin over-dose disorders and fatal outcome (Insulin over-dose): consistently counteract all insulin (over-dose of 250 IU/kg i.p.) disorders and fatal outcome
Counteraction of KCl-overdose (KCl-overdose): full counteracting ability
Blood pressure and outcome in hypovoluemic shock [1]: recovered blood pressure and prevented otherwise lethal outcome
Time (days) to death after a viral infection of mouses (Dengue 3): 20 days
Time (days) to death after a viral infection of mouses (Dengue 3; ip): 20 days
Time (days) to death after a viral infection of mouses (Bhania): 20 days
Time (days) to death after a viral infection of mouses (Bhania; ip): 20 days
Inhibitory effect on influenza A virus [2]: strong inhibitory effect
Animal survival (EAT tumor cells): ≥ 45 days
Time (days) to death after a viral infection of mouses (Dengue 1): 20 days
Time (days) to death after a viral infection of mouses (Dengue 1; ip): 20 days
Time (days) to death after a viral infection of mouses (Dengue 4): 20 days
Time (days) to death after a viral infection of mouses (Dengue 4; ip): 20 days
Time (days) to death after a viral infection of mouses (Herpes HSV-1): 20 days
Time (days) to death after a viral infection of mouses (Herpes HSV-1; ip): 20 days
Time (days) to death after a viral infection of mouses ([3]; ic): 20 days
Time (days) to death after a viral infection of mouses ([3]; ip): 20 days
Infection symptoms ([4]; FIG. 3 B: simultaneous 10^2 TBE virus (i.c.v.) and bepecin 10 μg/kg (i.p.)): Infection symptoms occur at a considerably later stage
Clinical signs of disease ([4]; FIG. 3 C: bepecin 10 μg/kg (i.p.) 4 hours before infection with 10^2 TBE virus (i.c.v.), 30 days): No clinical signs of disease
Survival of test animals ([4]; dose of 0.02 mg/kg of body weight): considerably prolongs the survival of test animals or even prevents infection
Time (days) to death after a viral infection of mouses (Calovo): 15 days
Time (days) to death after a viral infection of mouses (Calovo; ip): 15 days
Time (days) to death after a viral infection of mouses (hepatitis A virus): 20 days
Time (days) to death after a viral infection of mouses (hepatitis A virus; po): 20 days
Time when disease symptoms appeared ([5]; […], control animals died within 5 days): 20 days
Outbreak of the disease ([5]; given in the presence of the first symptoms (iii)): significantly delayed
Signs of disease or death at the time of observation ([5]; mouse, in vivo): no signs of disease or death
Lethal course of MPTP treatment (dopamine system): almost complete abolition of otherwise regularly lethal course of MPTP treatment
MPTP-impaired somatosensory orientation (dopamine system): strongly improved the MPTP-impaired somatosensory orientation
Time (days) to death after a viral infection of mouses (West Nile): 20 days
Time (days) to death after a viral infection of mouses (West Nile; ip): 20 days
